31 compounds from PubChem BioAssay AID248 (DTP/NCI, 2004) can be followed below.

The test system of this assay is L1210 leukemia ip in BDF1 mice, survival T/C. The experiment in a line: NCI In Vivo Anticancer Drug Screen. Data for tumor model L1210 Leukemia (intraperitoneal) in B6D2F1 (BDF1) mice. Conditions: T/C endpoint: mean survival time, higher T/C = longer survival.
[1] abbreviates: dose: 100.0 mg/kg/injection, schedule: Q04DX003 (ip), vehicle: Klucel (hydroxypropylcellulose) (HPC).
[2] abbreviates: dose: 200.0 mg/kg/injection, schedule: Q04DX003 (ip), vehicle: Klucel (hydroxypropylcellulose) (HPC).
Setting [3] is: dose: 400.0 mg/kg/injection, schedule: Q04DX003 (ip), vehicle: Klucel (hydroxypropylcellulose) (HPC).
The mark [4] stands for this setting: dose: 100.0 mg/kg/injection, schedule: Q01DX001 (ip), vehicle: saline.
The mark [5] stands for this setting: dose: 200.0 mg/kg/injection, schedule: Q01DX001 (ip), vehicle: saline.
The mark [6] stands for this setting: dose: 400.0 mg/kg/injection, schedule: Q01DX001 (ip), vehicle: saline.
Setting [7] is: dose: 100.0 mg/kg/injection, schedule: Q01DX009 (ip), vehicle: saline.
Where [8] appears, read: dose: 200.0 mg/kg/injection, schedule: Q01DX009 (ip), vehicle: saline.
Setting [9] is: dose: 400.0 mg/kg/injection, schedule: Q01DX001 (ip), vehicle: Klucel (hydroxypropylcellulose) (HPC).
Where [10] appears, read: dose: 100.0 mg/kg/injection, schedule: Q04DX003 (ip), vehicle: saline.
Where [11] appears, read: dose: 200.0 mg/kg/injection, schedule: Q04DX003 (ip), vehicle: saline.
Where [12] appears, read: dose: 400.0 mg/kg/injection, schedule: Q04DX003 (ip), vehicle: saline.

The list is a part of this screen's results and no random one: it is rich in T/C values a quarter to a half above the control, in often repeated tests (any T/C) and in doses without a T/C. Other doses and runs of a compound stand elsewhere. T/C is the treated group as % of the vehicle group. Some entries give survivors of the animals treated and no T/C: the source files T/C as zero there, which appears to mark a toxic dose or a test without result, not a measured value. Some survivor counts are full or nearly so, which does not show that the dose was tolerated: survival well below the control is almost never listed, so the zero probably covers shortened survival too. Survivors were counted at the toxicity check, usually on the fifth day, unless a day is given; later deaths do not show. Schedules are NCI's codes, read here as Q, the interval in days (D) or hours (H), X, the number of doses. For survival time, the PubChem record calls one and a half times the control and up active, and a quarter to a half above the control has no call in these data; cut-offs in other NCI protocols can differ. Some T/C values carry the count of animals alive at the toxicity check (mostly the fifth day); without a count, all were alive then.

On to `C/C=C/CC1=C(O)c2ccccc2C(=O)C1=O`, for which the survivor count by setting is: (dose: 200.0 mg/kg/injection, schedule: Q01DX001 (ip), vehicle: water) 0 of 6; (dose: 400.0 mg/kg/injection, schedule: Q01DX001 (ip), vehicle: water) 0 of 6.

As for `N#CS/C=C\C(N)=O`, the survivor count is, setting by setting: (dose: 25.0 mg/kg/injection, schedule: Q01DX009 (ip), vehicle: Klucel (hydroxypropylcellulose) (HPC)) 0 of 6; (dose: 25.0 mg/kg/injection, schedule: Q04DX003 (ip), vehicle: Klucel (hydroxypropylcellulose) (HPC)) 0 of 6; (dose: 50.0 mg/kg/injection, schedule: Q01DX009 (ip), vehicle: Klucel (hydroxypropylcellulose) (HPC)) 0 of 6; (dose: 50.0 mg/kg/injection, schedule: Q04DX003 (ip), vehicle: Klucel (hydroxypropylcellulose) (HPC)) 0 of 6; under setting [1], 0 of 6; under setting [2], 0 of 6. The survivor count under setting [3] is given as 0 of 6.

Turning to `CC1C2CC3OC(=O)C1C3C2` (stereo not given), under “dose: 400.0 mg/kg/injection, schedule: Q01DX001 (ip), vehicle: carboxymethylcellulose (CMC)”, the survivor count is on record as 0 of 4.

As to `CCCCCCCCCCCCCCCCNCC(O)CN` (stereo not given), the survivor count by setting is: (dose: 100.0 mg/kg/injection, schedule: Q04DX002 (ip), vehicle: saline) 0 of 3; (dose: 200.0 mg/kg/injection, schedule: Q04DX002 (ip), vehicle: saline) 0 of 3; (dose: 400.0 mg/kg/injection, schedule: Q04DX002 (ip), vehicle: saline) 0 of 3.

Take `Oc1ccc2ccccc2c1CNc1ccccc1`: the survivor count (dose: 400.0 mg/kg/injection, schedule: Q04DX003 (ip), vehicle: other) was 0 of 3.

On to `CCCCC1(C)CCC(=O)O1` (stereo not given), for which the T/C under setting [4] was 126 % of control.

Turning to `CCCCCCCCCCCCCC(=O)O` (tested in a mixture with another compound), the survivor count was 0 of 4 under setting [5] and 0 of 4 under setting [6].

With `O[Si](O)([O][Sn]([c]1ccccc1)([c]1ccccc1)[c]1ccccc1)[O][Sn]([c]1ccccc1)([c]1ccccc1)[c]1ccccc1`, the survivor count (dose: 50.0 mg/kg/injection, schedule: Q01DX009 (ip), vehicle: saline with Tween-80) is on record as 0 of 3; the survivor count (dose: 100.0 mg/kg/injection, schedule: Q01DX009 (ip), vehicle: saline with Tween-80) is listed as 0 of 3; the survivor count under setting [7] is 3 of 3; the survivor count under setting [8] is 0 of 3.

Turning to `Cc1ccc(COP(=O)(c2ccccc2)c2ccccc2)cc1`, the T/C (dose: 100.0 mg/kg/injection, schedule: Q01DX001 (ip), vehicle: Klucel (hydroxypropylcellulose) (HPC)) is 133 % of control [5 of 6 alive]. Also, under setting [9], the survivor count is recorded as 6 of 6.

Consider `CC(CCl)(CCl)CCl`, for which the survivor count (dose: 400.0 mg/kg/injection, schedule: Q01DX001 (ip), vehicle: saline sonified) is listed as 3 of 6.

Consider `Cc1cc(C)c(NC(=O)Nc2cccc(F)c2)c(C)c1`, for which the survivor count (dose: 400.0 mg/kg/injection, schedule: Q01DX009 (ip), vehicle: Klucel (hydroxypropylcellulose) (HPC)) is given as 5 of 6.

On to `Cc1cccc(C)c1NC(=O)Nc1ccc(S(N)(=O)=O)cc1`, for which the survivor count (dose: 100.0 mg/kg/injection, schedule: Q01DX009 (ip), vehicle: Klucel (hydroxypropylcellulose) (HPC)) is given as 6 of 6.

In the case of `Nc1nc2ccc(CNc3ccc(C(=O)NC(CC(=O)O)C(=O)O)cc3)cc2c(=O)[nH]1` (stereo not given), the T/C reads like this: under setting [10], 142 % of control; under setting [11], 133 % of control. In addition, the survivor count was 3 of 6 (dose: 400.0 mg/kg/injection, schedule: Q01DX001 (ip), vehicle: saline with Tween-80) and 3 of 6 under setting [12].

`CC(=[N-])CC(C)=O.CC(=[N-])CC(C)=O.[Co+2]`: the survivor count is, setting by setting: (dose: 50.0 mg/kg/injection, schedule: Q01DX001 (ip), vehicle: saline) 1 of 6; under setting [4], 0 of 6; under setting [5], 0 of 6; under setting [6], 0 of 6.

As for `CC[n+]1ccc(/C=C\c2cccc([N+](=O)[O-])c2)cc1`, the survivor count reads like this: under setting [2], 1 of 6; under setting [3], 0 of 6.

Regarding `Clc1ncnc2ccccc12`, the survivor count under setting [9] was 3 of 6.

In the case of `COc1cc(C2N(c3ccccc3)CCN2c2ccccc2)cc(OC)c1OC`, the survivor count (dose: 200.0 mg/kg/injection, schedule: Q01DX009 (ip), vehicle: Klucel (hydroxypropylcellulose) (HPC)) is 4 of 6.

Regarding `C=C(C)COc1c(C)c(C)c(OCC(=C)C)c(C)c1C`, the survivor count (dose: 200.0 mg/kg/injection, schedule: Q01DX001 (ip), vehicle: DMSO) is recorded as 6 of 6.

For `Cc1cccc(N2CCN(CCO)CC2)c1`, the survivor count is 1 of 3 under setting [7] and 0 of 3 under setting [8].

Consider `C[S+]1CCSCC1`, for which the survivor count runs as follows: under setting [10], 4 of 6; under setting [11], 2 of 6; under setting [12], 0 of 6.

Consider `S=c1[nH]ccs1`, for which the survivor count is, setting by setting: under setting [5], 0 of 6; under setting [6], 0 of 6.

Turning to `CC1(C)C2CCC1(CBr)C(=O)C2` (stereo not given), the survivor count (dose: 100.0 mg/kg/injection, schedule: Q04DX002 (ip), vehicle: Klucel (hydroxypropylcellulose) (HPC)) was 3 of 3 and the survivor count (dose: 400.0 mg/kg/injection, schedule: Q04DX002 (ip), vehicle: Klucel (hydroxypropylcellulose) (HPC)) was 3 of 3.

On to `CNC(=O)c1ccc[n+](CC(=O)Nc2ccccc2)c1`, for which the survivor count under setting [12] is reported as 0 of 6.

`CN(C)c1nnc([N+](=O)[O-])s1`: the survivor count reads like this: (dose: 256.0 mg/kg/injection, schedule: Q04DX003 (ip), vehicle: Klucel (hydroxypropylcellulose) (HPC)) 4 of 6; (dose: 512.0 mg/kg/injection, schedule: Q04DX003 (ip), vehicle: Klucel (hydroxypropylcellulose) (HPC)) 2 of 6.

`C#CCCC#C`: under “dose: 400.0 mg/kg/injection, schedule: Q04DX003 (ip), vehicle: saline with Tween-80”, the survivor count is 3 of 6.

For the compound `CC(C)C[C@H](O)C(=O)O`, the T/C (dose: 50.0 mg/kg/injection, schedule: Q01DX009 (ip), vehicle: saline) is 127 % of control. Further, the survivor count under setting [12] is reported as 3 of 6.

For the compound `CCN=C(c1ccc(NC(=O)c2ccc(C(=O)Nc3ccc(C(=NCC)N(CC)C(=O)NCC(=O)OCC)cc3)cc2)cc1)N(CC)C(=O)NCC(=O)OCC`, the T/C (dose: 6.25 mg/kg/injection, schedule: Q01DX015 (ip), vehicle: methylcellulose (MC)) was 129 % of control. Moreover, the survivor count (dose: 50.0 mg/kg/injection, schedule: Q01DX015 (ip), vehicle: methylcellulose (MC)) is given as 0 of 6; the survivor count (dose: 100.0 mg/kg/injection, schedule: Q01DX015 (ip), vehicle: methylcellulose (MC)) is recorded as 0 of 6; the survivor count (dose: 200.0 mg/kg/injection, schedule: Q01DX015 (ip), vehicle: methylcellulose (MC)) is on record as 0 of 6; the survivor count (dose: 400.0 mg/kg/injection, schedule: Q01DX015 (ip), vehicle: methylcellulose (MC)) is listed as 0 of 6.

In the case of `COc1ccc(C(O)c2c(CN3CCCCC3)c3ccccc3n2C)cc1` (stereo not given), the survivor count (dose: 400.0 mg/kg/injection, schedule: Q04DX002 (ip), vehicle: saline with Tween-80) is 3 of 3.

On to `Cc1ccc(S(=O)(=O)NC(=S)Nc2ccccc2)cc1`, for which, under setting [6], the survivor count is reported as 2 of 4.

`Cc1c2ccncc2cc2c3ccccc3n(CCO)c12`: under setting [1], the survivor count is recorded as 6 of 6.

With `CCC(C)n1c(C)cc(=O)n1C(C)CC` (stereo not given), the survivor count is 2 of 6 (dose: 75.0 mg/kg/injection, schedule: Q01DX001 (ip), vehicle: saline); 0 of 6 (dose: 150.0 mg/kg/injection, schedule: Q01DX001 (ip), vehicle: saline); 0 of 6 (dose: 300.0 mg/kg/injection, schedule: Q01DX001 (ip), vehicle: saline).
